The supplement of paper PMC4604168 (melanoma cell lines)
The list shows a part of the results. Many values rest on one well or one pass, so single values are uncertain.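 The apoptosis fraction was the count of cleaved-PARP antibody-stained nuclei relative to all DNA-stained nuclei, imaged in 1,536-well plates. Screening doses were set so most cells survived, and baseline and induced cleaved-PARP levels vary greatly across cell lines.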

Each compound was assayed on SkMel28 (assay: cleaved PARP positive nuclei fraction relative to DMSO control; melanoma cells; higher = more apoptosis). Settings: library dose: low library concentration; 72 h.

Structure (SMILES)	cleaved PARP positive nuclei fraction [%]
O=c1[nH]nc(Sc2ncc([N+](=O)[O-])s2)n1-c1ccc2c(c1)OCCO2 + Nc1nc(F)nc2c1ncn2[C@@H]1O[C@H](CO)[C@@H](O)[C@@H]1O [fludarabine] (first compound 0.2 µM, partner dose 0.2 µM)	71.2
Cc1cn(-c2cc(NC(=O)c3ccc(C)c(Nc4nccc(-c5cccnc5)n4)c3)cc(C(F)(F)F)c2)cn1 [nilotinib] + CCCS(=O)(=O)Nc1ccc(F)c(C(=O)c2c[nH]c3ncc(Cl)cc23)c1F [PLX4720] (first compound 0.2 µM, partner dose 0.08 µM)	25.9
O=C(Nc1cc(C(F)(F)F)cc(C(F)(F)F)c1)c1cc(Cl)ccc1O + CC(=O)O[C@@]12CO[C@@H]1C[C@H](O)[C@@]1(C)C(=O)[C@H](O)C3=C(C)[C@@H](OC(=O)[C@H](O)[C@@H](NC(=O)OC(C)(C)C)c4ccccc4)C[C@@](O)([C@@H](OC(=O)c4ccccc4)[C@H]21)C3(C)C [Docetaxel] (first compound 0.016 µM, partner dose 0.0001 µM)	127
O=C(/C=C/c1cccnc1)NCCCCC1CCN(C(=O)c2ccccc2)CC1 + Nc1nc(F)nc2c1ncn2[C@@H]1O[C@H](CO)[C@@H](O)[C@@H]1O [fludarabine] (first compound 0.01 µM, partner dose 0.2 µM)	78.4
N#CC[C@H](C1CCCC1)n1cc(-c2ncnc3[nH]ccc23)cn1 [ruxolitinib] + NC1(c2ccc(-c3nc4ccn5c(=O)[nH]nc5c4cc3-c3ccccc3)cc2)CCC1 [MK2206] (first compound 1 µM, partner dose 0.4 µM)	240
CCCCCCCCCCCCCCCCCCOP(=O)([O-])OC1CC[N+](C)(C)CC1 [Perifosine] + Cn1c(=O)n(-c2ccc(C(C)(C)C#N)cc2)c2c3cc(-c4cnc5ccccc5c4)ccc3ncc21 [NVP-BEZ235] (first compound 0.4 µM, partner dose 0.004 µM)	45.1
CC[C@]1(O)C[C@H]2CN(CCc3c([nH]c4ccccc34)[C@@](C(=O)OC)(c3cc4c(cc3OC)N(C=O)[C@H]3[C@@](O)(C(=O)OC)[C@H](OC(C)=O)[C@]5(CC)C=CCN6CC[C@]43[C@@H]65)C2)C1 [vincristine] + CC(=O)O[C@@]12CO[C@@H]1C[C@H](O)[C@@]1(C)C(=O)[C@H](O)C3=C(C)[C@@H](OC(=O)[C@H](O)[C@@H](NC(=O)OC(C)(C)C)c4ccccc4)C[C@@](O)([C@@H](OC(=O)c4ccccc4)[C@H]21)C3(C)C [Docetaxel] (first compound 0.0001 µM, partner dose 0.0001 µM)	84.6
CCCCCCCCCCCCCCCCCCOP(=O)([O-])OC1CC[N+](C)(C)CC1 [Perifosine] + CO[C@H]1C[C@@H]2CC[C@@H](C)[C@@](O)(O2)C(=O)C(=O)N2CCCC[C@H]2C(=O)O[C@H]([C@H](C)C[C@@H]2CC[C@@H](OCCO)[C@H](OC)C2)CC(=O)[C@H](C)/C=C(\C)[C@@H](O)[C@@H](OC)C(=O)[C@H](C)C[C@H](C)/C=C/C=C/C=C/1C [everolimus] (first compound 0.4 µM, partner dose 0.02 µM)	189
Cc1ccc(Nc2nccc(N(C)c3ccc4c(C)n(C)nc4c3)n2)cc1S(N)(=O)=O [Pazopanib] + CS(=O)(=O)CCNCc1ccc(-c2ccc3ncnc(Nc4ccc(OCc5cccc(F)c5)c(Cl)c4)c3c2)o1 [lapatinib] (first compound 0.4 µM, partner dose 0.8 µM)	113
N#CC[C@H](C1CCCC1)n1cc(-c2ncnc3[nH]ccc23)cn1 [ruxolitinib] + C[C@]1(c2nc3c(C(N)=O)cccc3[nH]2)CCCN1 [Veliparib] (first compound 1 µM, partner dose 1.4 µM)	36.6
CC[C@]1(O)C[C@H]2CN(CCc3c([nH]c4ccccc34)[C@@](C(=O)OC)(c3cc4c(cc3OC)N(C=O)[C@H]3[C@@](O)(C(=O)OC)[C@H](OC(C)=O)[C@]5(CC)C=CCN6CC[C@]43[C@@H]65)C2)C1 [vincristine] + Cn1cnc2c(F)c(Nc3ccc(Br)cc3Cl)c(C(=O)NOCCO)cc21 [selumetinib] (first compound 0.0001 µM, partner dose 0.015 µM)	52.6
CC[C@]1(O)C[C@H]2CN(CCc3c([nH]c4ccccc34)[C@@](C(=O)OC)(c3cc4c(cc3OC)N(C=O)[C@H]3[C@@](O)(C(=O)OC)[C@H](OC(C)=O)[C@]5(CC)C=CCN6CC[C@]43[C@@H]65)C2)C1 [vincristine] + Nc1cccc2c1CN(C1CCC(=O)NC1=O)C2=O [lenalidomide] (first compound 0.0001 µM, partner dose 1 µM)	46.3
N#CC[C@H](C1CCCC1)n1cc(-c2ncnc3[nH]ccc23)cn1 [ruxolitinib] + CCN(CC)CCNC(=O)c1c(C)[nH]c(/C=C2\C(=O)Nc3ccc(F)cc32)c1C [sunitinib] (first compound 1 µM, partner dose 0.4 µM)	42
COc1cc([C@@H]2c3cc4c(cc3[C@@H](O[C@@H]3O[C@@H]5CO[C@@H](C)O[C@H]5[C@H](O)[C@H]3O)[C@H]3COC(=O)[C@H]23)OCO4)cc(OC)c1O [etoposide] + O=C(/C=C/c1cccnc1)NCCCCC1CCN(C(=O)c2ccccc2)CC1 [FK866] (first compound 0.02 µM, partner dose 0.01 µM)	75.3
O=c1[nH]nc(Sc2ncc([N+](=O)[O-])s2)n1-c1ccc2c(c1)OCCO2 + CC(=O)O[C@@]12CO[C@@H]1C[C@H](O)[C@@]1(C)C(=O)[C@H](O)C3=C(C)[C@@H](OC(=O)[C@H](O)[C@@H](NC(=O)OC(C)(C)C)c4ccccc4)C[C@@](O)([C@@H](OC(=O)c4ccccc4)[C@H]21)C3(C)C [Docetaxel] (first compound 0.2 µM, partner dose 0.0001 µM)	112
N#CC[C@H](C1CCCC1)n1cc(-c2ncnc3[nH]ccc23)cn1 [ruxolitinib] + NC(=O)c1ccc(N(C(N)=O)c2c(F)cccc2F)nc1-c1ccc(F)cc1F [VX702] (first compound 1 µM, partner dose 0.4 µM)	40.8
N#CC[C@H](C1CCCC1)n1cc(-c2ncnc3[nH]ccc23)cn1 [ruxolitinib] + Cn1sc(=O)n(Cc2ccccc2)c1=O [TDZD-8] (first compound 1 µM, partner dose 0.4 µM)	32.9
CC[C@]1(O)C[C@H]2CN(CCc3c([nH]c4ccccc34)[C@@](C(=O)OC)(c3cc4c(cc3OC)N(C=O)[C@H]3[C@@](O)(C(=O)OC)[C@H](OC(C)=O)[C@]5(CC)C=CCN6CC[C@]43[C@@H]65)C2)C1 [vincristine] + C[C@@H](Oc1cc(-c2cnn(C3CCNCC3)c2)cnc1N)c1c(Cl)ccc(F)c1Cl [Crizotinib] (first compound 0.0001 µM, partner dose 0.2 µM)	110
O=c1[nH]nc(Sc2ncc([N+](=O)[O-])s2)n1-c1ccc2c(c1)OCCO2 + CN(c1ncccc1CNc1nc(Nc2ccc3c(c2)CC(=O)N3)ncc1C(F)(F)F)S(C)(=O)=O [PF562271] (first compound 0.2 µM, partner dose 0.08 µM)	109
O=C(Nc1cc(C(F)(F)F)cc(C(F)(F)F)c1)c1cc(Cl)ccc1O + Nc1ccn([C@@H]2O[C@H](CO)[C@@H](O)C2(F)F)c(=O)n1 [gemcitabine] (first compound 0.016 µM, partner dose 0.0004 µM)	85.7
COc1cc([C@@H]2c3cc4c(cc3[C@@H](O[C@@H]3O[C@@H]5CO[C@@H](C)O[C@H]5[C@H](O)[C@H]3O)[C@H]3COC(=O)[C@H]23)OCO4)cc(OC)c1O [etoposide] + CCCS(=O)(=O)Nc1ccc(F)c(C(=O)c2c[nH]c3ncc(Cl)cc23)c1F [PLX4720] (first compound 0.02 µM, partner dose 0.08 µM)	32.3
CC[C@]1(O)C[C@H]2CN(CCc3c([nH]c4ccccc34)[C@@](C(=O)OC)(c3cc4c(cc3OC)N(C=O)[C@H]3[C@@](O)(C(=O)OC)[C@H](OC(C)=O)[C@]5(CC)C=CCN6CC[C@]43[C@@H]65)C2)C1 [vincristine] + Cn1c(=O)n(-c2ccc(C(C)(C)C#N)cc2)c2c3cc(-c4cnc5ccccc5c4)ccc3ncc21 [NVP-BEZ235] (first compound 0.0001 µM, partner dose 0.004 µM)	115
COc1cc([C@@H]2c3cc4c(cc3[C@@H](O[C@@H]3O[C@@H]5CO[C@@H](C)O[C@H]5[C@H](O)[C@H]3O)[C@H]3COC(=O)[C@H]23)OCO4)cc(OC)c1O [etoposide] + CN(c1ncccc1CNc1nc(Nc2ccc3c(c2)CC(=O)N3)ncc1C(F)(F)F)S(C)(=O)=O [PF562271] (first compound 0.02 µM, partner dose 0.08 µM)	106
Cc1cc(Nc2cc(N3CCN(C)CC3)nc(Sc3ccc(NC(=O)C4CC4)cc3)n2)n[nH]1 [Tozasertib] + Cc1cc(Nc2cc(N3CCN(C)CC3)nc(/C=C/c3ccccc3)n2)n[nH]1 [ENMD2076] (first compound 0.006 µM, partner dose 0.04 µM)	78
O=C(Nc1cc(C(F)(F)F)cc(C(F)(F)F)c1)c1cc(Cl)ccc1O + C[C@]1(c2nc3c(C(N)=O)cccc3[nH]2)CCCN1 [Veliparib] (first compound 0.016 µM, partner dose 1.4 µM)	138

Some of the entries so far, in markdown:

| Structure (SMILES) | cleaved PARP positive nuclei fraction [%] |
| --- | --- |
| COc1cc([C@@H]2c3cc4c(cc3[C@@H](O[C@@H]3O[C@@H]5CO[C@@H](C)O[C@H]5[C@H](O)[C@H]3O)[C@H]3COC(=O)[C@H]23)OCO4)cc(OC)c1O [etoposide] + O=C(/C=C/c1cccnc1)NCCCCC1CCN(C(=O)c2ccccc2)CC1 [FK866] (first compound 0.02 µM, partner dose 0.01 µM) | 75.3 |
| O=c1[nH]nc(Sc2ncc([N+](=O)[O-])s2)n1-c1ccc2c(c1)OCCO2 + CC(=O)O[C@@]12CO[C@@H]1C[C@H](O)[C@@]1(C)C(=O)[C@H](O)C3=C(C)[C@@H](OC(=O)[C@H](O)[C@@H](NC(=O)OC(C)(C)C)c4ccccc4)C[C@@](O)([C@@H](OC(=O)c4ccccc4)[C@H]21)C3(C)C [Docetaxel] (first compound 0.2 µM, partner dose 0.0001 µM) | 112 |
| N#CC[C@H](C1CCCC1)n1cc(-c2ncnc3[nH]ccc23)cn1 [ruxolitinib] + NC(=O)c1ccc(N(C(N)=O)c2c(F)cccc2F)nc1-c1ccc(F)cc1F [VX702] (first compound 1 µM, partner dose 0.4 µM) | 40.8 |
| N#CC[C@H](C1CCCC1)n1cc(-c2ncnc3[nH]ccc23)cn1 [ruxolitinib] + Cn1sc(=O)n(Cc2ccccc2)c1=O [TDZD-8] (first compound 1 µM, partner dose 0.4 µM) | 32.9 |
| CC[C@]1(O)C[C@H]2CN(CCc3c([nH]c4ccccc34)[C@@](C(=O)OC)(c3cc4c(cc3OC)N(C=O)[C@H]3[C@@](O)(C(=O)OC)[C@H](OC(C)=O)[C@]5(CC)C=CCN6CC[C@]43[C@@H]65)C2)C1 [vincristine] + C[C@@H](Oc1cc(-c2cnn(C3CCNCC3)c2)cnc1N)c1c(Cl)ccc(F)c1Cl [Crizotinib] (first compound 0.0001 µM, partner dose 0.2 µM) | 110 |
